# Experimental data reported in the supplement of paper PMC3334620.
# The full ranking holds about 33,000 sequences; the median of “E-score (-0.5 to 0.5)” is about -0.0034, and the highest 2% start at about 0.25. Some of the results follow.
# Target: T1, Yap3 (UniProt P38749)
# T1 sequence: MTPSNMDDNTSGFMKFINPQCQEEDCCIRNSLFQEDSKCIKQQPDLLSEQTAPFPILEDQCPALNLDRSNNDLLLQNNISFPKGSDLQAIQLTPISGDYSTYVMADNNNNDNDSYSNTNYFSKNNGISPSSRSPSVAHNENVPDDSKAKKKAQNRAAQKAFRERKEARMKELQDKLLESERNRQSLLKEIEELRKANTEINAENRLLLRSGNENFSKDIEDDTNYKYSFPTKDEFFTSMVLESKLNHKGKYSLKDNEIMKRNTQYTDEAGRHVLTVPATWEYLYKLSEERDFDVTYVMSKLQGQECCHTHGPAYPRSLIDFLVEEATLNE
# Experiment: PBM E-score (8-mer binding enrichment) (E-score (-0.5 to 0.5)); higher = stronger / more preferred TF binding
# Conditions: protein concentration: 100 nM; construct: GST-full length
# How it was run: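 Each ungapped eight-base word and its reverse complement, pooled, received an E-score from the Universal PBM Analysis Suite. Underlying scans, normalised with masliner, recorded fluorescent anti-GST bound to GST-tagged yeast transcription factors. These were applied at about 100-200 nM to universal all-10-mer Agilent arrays double-stranded by primer extension.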
row,Sequence,PBM E-score
1,CACGACCA,-0.0289
2,CTACCTGC,-0.1
3,AGGTATAG,0.0398
4,AGTAGCGG,0.0175
5,GAATGCCA,-0.0609
6,CGAAACGC,-0.124
7,CCGATCTA,-0.115
8,ACAGTGGT,-0.0202
9,GGCGGGGA,0.233
10,ACAGACAG,0.0669
11,ACCAGTGG,-0.129
12,ACTGTCGA,-0.0539
13,GACGTCGA,0.0993
14,GGCCTAAA,-0.112
15,ATCCTTTC,0.0424
16,AACGGCCA,-0.0772
17,CACTGGTC,-0.137
18,AAAACTTT,0.0631
19,AAATGACC,0.0722
20,GCAACGCC,-0.247
21,ATATTAAG,0.0834
22,AGTTGCTC,-0.104
23,ACACGCGT,0.112
24,CGGTTACC,-0.159
25,GCGTCAAA,0.0706

# Three records picked at random from the list so far, as already listed:
row,Sequence,PBM E-score
10,ACAGACAG,0.0669
17,CACTGGTC,-0.137
24,CGGTTACC,-0.159

# (further entries)

row,Sequence,PBM E-score
1,GAAGGCAC,-0.128
2,GGCAGCCC,-0.322
3,CCATGTCA,-0.0941
4,CTTAGTGC,-0.0295
5,GGGGACAC,-0.315
6,CCTTGGAC,-0.216
7,AGCAAGCG,-0.0215
8,AGCCGGAG,0.00421
9,AGGATCGA,-0.09
10,ACAGGCAT,-0.0533
11,GTATACAC,-0.0686
12,CCTGAACC,-0.0771
13,AAGCCTAC,-0.0223
14,AGGAGGAT,-0.0704
15,GGGGGTGA,-0.178
16,AACCCACT,0.176
17,CACCGGGC,-0.34
18,CTTGGAAA,0.0251
19,GTTAAAAA,0.225
20,ATCAATTC,-0.0493
21,CCCGCTTC,-0.117
22,CCAGCGAG,-0.0495
23,ACCAGCCT,-0.157
24,GCTTGTCC,-0.103
25,GTTGCGCA,-0.0198

row,Sequence,PBM E-score
1,ATTCCGTC,0.019
2,GTGTCCGA,-0.0129
3,AAGACCTT,0.0295
4,TGTCCAAA,0.0292
5,CGAAATCC,0.108
6,TGGAGTAA,0.205
7,CCCAGGGA,-0.402
8,ATATTTTA,0.273
9,TCTTGCAA,0.011
10,CGAGTATA,0.209
11,ACATATGC,-0.195
12,CGCTAACA,0.118
13,AGCACTGA,-0.00441
14,ACGTTATC,0.0137
15,AGACCGAC,0.0381
16,GCCACCGA,-0.255
17,ATCCTGAC,0.121
18,AACAGCCT,-0.0849
19,CCATGTCG,-0.0289
20,AGCTTCCG,-0.102
21,CGAATTAA,0.0999
22,AAACGTGC,-0.0428
23,ATGGCGTC,-0.0542
24,AAGTATAT,0.135
25,ACTTGCGA,0.0575

row,Sequence,PBM E-score
1,ACAAGCCC,-0.236
2,CCGGACCA,-0.247
3,ACCCCATC,-0.157
4,CATGGACC,-0.093
5,ACAGTTGA,0.113
6,ACTGCGCA,0.0469
7,AATTACTG,0.218
8,AGGTAAAG,0.224
9,ATCAGTAG,0.0393
10,ATCCGACC,-0.021
11,AGTTTATA,0.205
12,CCCATAAC,0.0193
13,AGGTCTGC,-0.226
14,AACGTATC,-0.00988
15,CCGGTACC,-0.0802
16,ATAGAAAC,0.174
17,AACTGGAG,-0.188
18,GTTTAAAC,0.126
19,ACAGGACG,-0.0578
20,GTAAGGAC,-0.0757
21,AAGAGCTT,-0.0936
22,GTAACGGA,0.0825
23,ACAGGAGC,0.151
24,AACCTCTA,0.0344
25,CTGTTTTC,-0.0508

row,Sequence,PBM E-score
1,ATAATGAC,0.0171
2,AGGTTGAG,-0.294
3,TGTCCGAA,0.161
4,AACTTCGC,-0.0832
5,CTGCGCCA,-0.0367
6,CTTACTCA,0.164
7,AGTAGAGC,-0.0281
8,AGCTCAAT,0.0583
9,GTGCGGTA,-0.0885
10,CCAGCAGG,-0.337
11,CCCAGGAC,-0.304
12,GATTCCAA,0.00949
13,ATACTATC,0.113
14,GCGTGCCA,-0.122
15,TATGACCA,0.112
16,CGTGTAAG,-0.0107
17,AGTAGACG,0.102
18,ACGCTATC,0.109
19,AATACTAC,0.202
20,CCTCCGTC,-0.25
21,GAAGTGTA,-0.11
22,ACGGTCAT,0.0848
23,CGGGAAAG,-0.113
24,ACATGTAC,0.112
25,CGCATTTC,0.146

row,Sequence,PBM E-score
1,CTTCTGTC,0.0152
2,CTCTGACC,-0.31
3,AAACTAAA,0.261
4,ACAGCTAC,-0.0945
5,GAAGAAAC,0.16
6,CTAATGTA,0.148
7,GGCTAACC,-0.132
8,GCTCGTCA,-0.23
9,CCGGAAAG,-0.139
10,CATCGCTA,0.0613
11,TGTAAACA,0.0376
12,ATAACGCA,0.189
13,TAACCACA,0.155
14,GTAGGTAA,0.0294
15,GAGCCCGC,-0.239
16,ATCGCATC,-0.0542
17,AGAGTGGC,-0.0629
18,GGCTCCAA,-0.0684
19,GATGAAGA,-0.0381
20,CAGTCGAC,0.157
21,ATAGACCC,0.0393
22,AGTCTGTA,-0.176
23,ACGGATGC,-0.00022
24,TGGATCAA,-0.0373
25,GCATACCA,0.0125

row,Sequence,PBM E-score
1,ACCCCCGA,-0.164
2,ACCCATGA,-0.0383
3,GGGAACTA,-0.0139
4,GGACGTAA,-0.0155
5,CACGGAGC,-0.056
6,CCAAATCA,0.0273
7,CATACCCC,-0.00337
8,ACCGCGAA,-0.00285
9,GCGACGTA,0.0143
10,GTTATCAA,0.0563
11,CTTACTGC,0.0596
12,CCAATAAC,0.142
13,ACGGAACA,0.0638
14,CAAGCTTC,-0.0571
15,ACCGGCTG,-0.285
16,AATAGCTC,-0.0298
17,ATCGATCG,0.15
18,ATGATGGA,0.0917
19,CGACACGC,0.0316
20,AACGTGAA,0.0806
21,GCCCCTCA,-0.318
22,GGTCATAC,-0.0137

# Single entries from the entries so far.
# PBM E-score with GTTATCAA is entered as 0.0563
# PBM E-score with CATACCCC is entered as -0.00337
# PBM E-score with CCAATAAC is entered as 0.142
# PBM E-score with ATCGATCG is entered as 0.15
# PBM E-score with ACGGAACA is entered as 0.0638
